Measurements reported in PubChem BioAssay AID504791 (Drosophila RNAi Screening Center, 2011).

- Purpose: 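Factors in Argonaute-based small RNA production and activity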 (primary screen)
- Cells: Drosophila S2-derived reporter cells
- Knock-down reagent: long dsRNA against Drosophila genes, about 150-250 ng dsRNA per well (siRNA assay); about 80-120 ng (miRNA assay)
- Timing: about 5 days (siRNA assay); about 4 days (miRNA assay)
- Conditions: copper sulfate induction of reporters: 25 µM (siRNA assay); 200 mM stated (miRNA assay), 1-2 days before reading
- Read-out: 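Dual luciferase assay: Renilla to firefly signal ratio in each well, scaled to the mean ratio of its plate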
- Units: stable assay Renilla, run 1 in luminescence; stable assay firefly, run 1 in luminescence
- Rule for the call: 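a well was a first-pass pick when its plate-scaled ratio rose above 1.5 (siRNA assay) or 1.6 (miRNA assay), or dropped below 0.6; a gene counted only if two separate dsRNAs agreed on retest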
The screen tested about 23,000 reagents; below is a random part of those that have a named target and a result. Of all reagents, 199 (0.86%) were called active. 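Plate-scaled ratios behind the calls are not deposited; printed light signals are raw; many rows marked increased or decreased are still called inactive.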 The numbers tell different reagents against one gene apart. Not stated in the record: the direction of the score.

Cdc42 (GeneID 32981) — stable siRNA reporter change: reporter ratio lowered past the hit cutoff; stable assay Renilla, run 1: 5188; stable assay firefly, run 1: 6.06e5; outcome: inactive
CG42789 (GeneID 10178793) — stable assay Renilla, run 1: 5303; stable assay firefly, run 1: 6.22e5; outcome: inactive
RpLP0 (GeneID 40451) #1 — stable assay Renilla, run 1: 6767; stable assay firefly, run 1: 3.46e5; outcome: inactive
RpLP0 (GeneID 40451) #2 — miRNA reporter change: reporter ratio raised past the hit cutoff; stable assay Renilla, run 1: 8919; stable assay firefly, run 1: 4.26e5; outcome: inactive
fid (GeneID 43148) #1 — stable assay Renilla, run 1: 5878; stable assay firefly, run 1: 2.62e5; outcome: inactive
fid (GeneID 43148) #2 — stable assay Renilla, run 1: 7143; stable assay firefly, run 1: 2.30e5; outcome: inactive
SdhBL (GeneID 32887) — stable assay Renilla, run 1: 5000; stable assay firefly, run 1: 3.20e5; outcome: inactive
CG7135 (GeneID 32793) — stable assay Renilla, run 1: 6567; stable assay firefly, run 1: 5.07e5; outcome: inactive
Ipp (GeneID 41701) — stable assay Renilla, run 1: 6439; stable assay firefly, run 1: 3.46e5; outcome: inactive
ClpP (GeneID 34402) — stable assay Renilla, run 1: 32776; stable assay firefly, run 1: 7.15e5; outcome: inactive
CG17490 (GeneID 3355125) #1 — stable assay Renilla, run 1: 5978; stable assay firefly, run 1: 3.71e5; outcome: inactive
CG17490 (GeneID 3355125) #2 — stable assay Renilla, run 1: 6843; stable assay firefly, run 1: 4.13e5; outcome: inactive
Gr22f (GeneID 117349) — stable assay Renilla, run 1: 5352; stable assay firefly, run 1: 3.93e5; outcome: inactive
eIF4H1 (GeneID 49809) — stable assay Renilla, run 1: 5788; stable assay firefly, run 1: 5.30e5; outcome: inactive
Tep4 (GeneID 35248) — stable assay Renilla, run 1: 7174; stable assay firefly, run 1: 3.27e5; outcome: inactive
CG15336 (GeneID 31742) — stable assay Renilla, run 1: 5134; stable assay firefly, run 1: 2.91e5; outcome: inactive
Toll-7 (GeneID 37272) — stable assay Renilla, run 1: 4671; stable assay firefly, run 1: 3.89e5; outcome: inactive
Uch-L5 (GeneID 39102) — stable assay Renilla, run 1: 8027; stable assay firefly, run 1: 4.38e5; outcome: inactive
qsm (GeneID 47065) #1 — stable assay Renilla, run 1: 6651; stable assay firefly, run 1: 4.65e5; outcome: inactive
qsm (GeneID 47065) #2 — stable assay Renilla, run 1: 5667; stable assay firefly, run 1: 3.78e5; outcome: inactive
CG33464 (retired record) (GeneID 2768843) — stable assay Renilla, run 1: 4676; stable assay firefly, run 1: 4.40e5; outcome: inactive
RfC3 (GeneID 34423) — stable assay Renilla, run 1: 8356; stable assay firefly, run 1: 3.22e5; outcome: inactive
CG13309 (GeneID 39012) — stable assay Renilla, run 1: 6444; stable assay firefly, run 1: 3.36e5; outcome: inactive
COX7AL (GeneID 40995) — stable assay Renilla, run 1: 7538; stable assay firefly, run 1: 5.26e5; outcome: inactive
Ir60a (GeneID 37881) — stable assay Renilla, run 1: 5976; stable assay firefly, run 1: 3.15e5; outcome: inactive
CG7408 (GeneID 39991) — stable assay Renilla, run 1: 8182; stable assay firefly, run 1: 3.89e5; outcome: inactive
lbe (GeneID 42542) — stable assay Renilla, run 1: 7143; stable assay firefly, run 1: 3.09e5; outcome: inactive
CG31360 (GeneID 318698) — stable assay Renilla, run 1: 3247; stable assay firefly, run 1: 3.49e5; outcome: inactive
